# Measured data: PubChem BioAssay AID504804 (Drosophila RNAi Screening Center, 2011)
# Test: 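Knock-downs shielding fly cells from apoptosis caused by DNA damage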 (primary screen)
# System: Drosophila Kc cells
# Knock-down reagent: long dsRNA against Drosophila genes, 0.5 µg dsRNA per well
# Timing: 96 h (48 h knock-down, then 48 h drug)
# Challenge: doxorubicin 5 µg/ml for 48 h, added 48 h after dsRNA
# Read-out: 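Viability measured as cellular ATP by luminescence after 48 h knock-down then 48 h doxorubicin at 5 µg/ml; unnormalised plate counts for each replicate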
# Reading the numbers: raw ATP luminescence: higher = more viable cells, protection from doxorubicin
# Hit rule: 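Active when both duplicate wells lie at least 2 SD above the plate mean and protection is confirmed by rescreening and independent dsRNAs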
# In all, the deposit lists about 19,000 reagents; shown is a random part of those with a known target gene and a result. Over the whole deposit, 47 (0.25%) got an active call. 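Signals are raw, not normalised; exact z-scores behind calls not deposited; actives needed confirmation, so some wells reaching 2 SD are inactive.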 Unmarked entries are inactive. Names joined by + are all predicted targets of the reagent.
The opening 10 records as a preview:
predicted target,dsRNA,"raw ATP luminescence, replicate 1","raw ATP luminescence, replicate 2"
rngo (rings lost),DRSC19903,1.53e5,1.93e5
CG16853,DRSC01877,74877,77163
Mid1,DRSC04230,53297,49243
Mid1,DRSC04231,43863,49813
Mid1,DRSC04308,42297,45133
Rcc1 (Regulator of chromosome condensation 1),DRSC09684,50317,30713
CG16704,DRSC00475,26527,39200
CG7924,DRSC10931,19423,20397
ken (ken and barbie),DRSC04696,36507,31777
CG5196,DRSC15735,66790,51127

The listing, from the start:
predicted target,dsRNA,"raw ATP luminescence, replicate 1","raw ATP luminescence, replicate 2"
rngo (rings lost),DRSC19903,1.53e5,1.93e5
CG16853,DRSC01877,74877,77163
Mid1,DRSC04230,53297,49243
Mid1,DRSC04231,43863,49813
Mid1,DRSC04308,42297,45133
Rcc1 (Regulator of chromosome condensation 1),DRSC09684,50317,30713
CG16704,DRSC00475,26527,39200
CG7924,DRSC10931,19423,20397
ken (ken and barbie),DRSC04696,36507,31777
CG5196,DRSC15735,66790,51127
CG32536 + CG32537,DRSC20074,4.12e5,2.99e5
side (sidestep),DRSC14523,57330,62690
side (sidestep),DRSC14716,58260,47820
side (sidestep),DRSC14717,63660,54350
side (sidestep),DRSC14718,59540,68890
side (sidestep),DRSC14721,69090,52620
cu (curled),DRSC15643,55117,51920
cu (curled),DRSC15648,54240,60433
Tina-1 (Troponin C-akin-1),DRSC04317,80790,82480
Cyp316a1 (Cytochrome P450 316a1),DRSC11130,90163,86143
Cyp6a13 (Cytochrome P450 6a13),DRSC07375,73723,83117
Ssk (Snakeskin),DRSC10756,42310,21297
sut3 (sugar transporter 3),DRSC07702,47930,79577
Ntmt (N-terminal methyltransferase),DRSC06624,34437,57470
Smug,DRSC15762,74740,85340
lig (lingerer),DRSC07246,58047,43973
lig (lingerer),DRSC07247,40713,57587
CG9875,DRSC04585,49343,49803
CG13070,DRSC09953,50657,40717
CG11825,DRSC06090,45590,61877
CG6231,DRSC15997,64220,89740
Gapdh2 (Glyceraldehyde 3 phosphate dehydrogenase 2),DRSC20246,3.50e5,2.65e5
CG10175,DRSC13628,2.34e5,1.95e5
CG10175,DRSC14200,62620,64930
BaraB (Baramicin B),DRSC06420,48803,85073
CG13723,DRSC10052,30663,22467
Bdp1 (B double prime 1),DRSC03192,93777,69800
MESK2 + CG10494,DRSC04259,56617,74110
CG4896,DRSC00671,98730,71890
Cyp6a22 (Cytochrome P450 6a22),DRSC07382,59827,63270
CG14105,DRSC10107,60430,63897
tral (trailer hitch),DRSC09779,22513,33640
Tom20 (Translocase of outer membrane 20),DRSC10899,26597,24427
Erasp (Endoplasmic reticulum stress-associated serine protease),DRSC07111,65280,72760
mRpL51 (mitochondrial ribosomal protein L51),DRSC02200,77280,60313
CG13361,DRSC17896,61990,73590
"Sr-CI (Scavenger receptor class C, type I)",DRSC00790,1.65e5,2.23e5
CG9500,DRSC03237,20123,20007
"Prosalpha4T1 (Proteasome alpha4 subunit, Testis-specific 1)",DRSC16800,78260,98160
eloF (elongase F),DRSC15162,52853,38497
hoip (hoi-polloi),DRSC03546,15607,18497
CG13739,DRSC06410,18867,27623
hob (hobbit),DRSC08426,45240,38693
futsch,DRSC17688,2.03e5,2.10e5
futsch,DRSC17949,50080,50670
futsch,DRSC18543,43830,52520
CG11600,DRSC14332,56457,54363
CG10183,DRSC14203,55920,46970
CG17249,DRSC08517,53750,64110
Nup43 (Nucleoporin 43kD),DRSC16279,77030,77650
Spn77Ba (Serpin 77Ba),DRSC10693,34797,33067
Letm1,DRSC04476,68900,54940
CG12194,DRSC00345,21327,22803
"SerRS-m (Seryl-tRNA synthetase, mitochondrial)",DRSC14096,95160,85040
Syx13 (Syntaxin 13),DRSC09836,78927,1.19e5
CalpC (Calpain C),DRSC19873,3.15e5,2.93e5
Prosbeta7 (Proteasome beta7 subunit),DRSC12186,41520,23437
CG32148,DRSC09338,91153,83290
CG10324,DRSC14230,65660,69190
CG15549,DRSC15087,62450,40910
CG17027,DRSC10238,21480,31130
CG10031,DRSC00286,28330,23510
CG31183,DRSC14403,73580,79230
CG31183,DRSC15554,41823,47013
sff (sugar-free frosting),DRSC10590,40320,34220
natalisin,DRSC14966,29210,29490
natalisin,DRSC14967,55050,66180
Sxl + CG14425 (retired record),DRSC18722,44930,53430
dpr20 (defective proboscis extension response 20),DRSC08265,59680,62097
ERR (estrogen-related receptor),DRSC10840,36043,40253
CG4854,DRSC15663,38300,38370
Vm26Ab (Vitelline membrane 26Ab),DRSC03473,24357,22203
Atg101 (Autophagy-related 101),DRSC20020,3.34e5,2.91e5
CG5860,DRSC15896,61360,72460
Art3 (Arginine methyltransferase 3),DRSC16065,73733,31313
Ubx (Ultrabithorax),DRSC16891,60680,54830
CG12914,DRSC06229,53803,62953
PGRP-LD + Pmi,DRSC10512,56047,67973
PGRP-LD + Pmi,DRSC10513,63477,93253
Mps1 (Monopolar spindle 1),DRSC16273,56237,53030
CCKLR-17D1 (Cholecystokinin-like receptor at 17D1),DRSC20010,2.89e5,2.66e5
CCKLR-17D1 (Cholecystokinin-like receptor at 17D1),DRSC20011,2.34e5,2.26e5
CCKLR-17D1 (Cholecystokinin-like receptor at 17D1),DRSC20012,2.01e5,2.51e5
CG42694,DRSC03955,78100,69910
rhea,DRSC11300,82727,73243
Hsl (Hormone-sensitive lipase),DRSC06028,66470,74703
CG5506,DRSC10511,57570,42837
CG3091,DRSC18274,34840,38920
CG7997,DRSC07052,58870,51723
CG11550,DRSC14326,44450,47940
Ac76E (Adenylyl cyclase 76E),DRSC09642,63783,63320
Ac76E (Adenylyl cyclase 76E),DRSC09662,24147,18897
CG3640,DRSC04399,45710,54227
HGTX,DRSC09319,76050,84437
HGTX,DRSC11181,71063,66467
Ndae1 (Na[+]-driven anion exchanger 1),DRSC00975,2.44e5,2.35e5
Ndae1 (Na[+]-driven anion exchanger 1),DRSC02770,1.20e5,77100
